From PubChem BioAssay AID493014 (National Center for Advancing Translational Sciences (NCATS), 2011)
The other results are listed elsewhere or left out. Further columns of the screen follow, without active or inactive calls. The list favours compounds with an active or inconclusive main result. The note in brackets gives the kind of curve behind each potency; many fits are weak.

Assay: qHTS Assay to Find Inhibitors of Chronic Active B-Cell Receptor Signaling
Details: ABC-DLBCL IkBa-CBG/CBR reporter, luminescence ratio (green luciferase fused to IkBa over red control in TMD8 lymphoma cells), 4 h
Procedure, shortened: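 Cell line TMD8 (human ABC DLBCL), stably expressing tet-inducible CBG68-IkBa fusion and CBR; IMDM/0.5% FBS; cpd up to 46 uM; dox induction, 4 h, 37C/5% CO2; dual luminescence; green/red ratio; MG132 control.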

[1] = measured here: CBR red luminescence, cell number

| SMILES | AC50 [1] | AC50 (measured here: IkBa-CBG green luminescence) |
| --- | --- | --- |
| FC(F)(F)c1cccc(N2CCc3cn[nH]c32)c1 | 23.1 µM [rising, partial curve, poor fit] | – |
| CN1C(=O)c2cccc3c(S(=O)(=O)Nc4ccccn4)ccc1c23 | 14.6 µM [rising, partial curve, poor fit] | – |
| COCCCNC(=O)c1ccc2c(c1)ncn2-c1ccccc1OC | 29.1 µM [falling, single point] | – |
| COCCOC1CCN(Cc2cn(Cc3ccccc3)nc2-c2cc3ccccc3o2)CC1 | 35.5 µM [falling, partial curve, poor fit] | – |
| CS(=O)(=O)c1cccc(C(=O)Nc2cccc(-c3nc4ccccc4[nH]3)c2)c1 | 20 µM [falling, partial curve, poor fit] | – |
| O=C(CSCc1ccccc1)N1CCN(c2ccc(F)cc2)CC1 | 1.58 µM [rising, partial curve, poor fit] | – |
| CNC(=O)c1nc(C)c(C2(C)CC(c3ccccc3)=NO2)s1 (stereo not drawn) | 35.5 µM [rising, single point] | – |
| O=S(=O)(Nc1cccc2c1CCCC2)c1cccc(C(F)(F)F)c1 | – | 23.1 µM [rising, partial curve, poor fit] |
| CCOC(=O)C1CCN(S(=O)(=O)c2cccc(-c3csc(C)n3)c2)CC1 | 1.16 µM [falling, full curve] | – |
| CCN(CC)S(=O)(=O)c1ccc(N/N=C/c2ccc(O)cc2)nc1 | 22.4 µM [falling, single point] | – |
| CCOC(=O)c1c(C)nc2sc(C(=O)Nc3ccc(OC)cc3)c(N)c2c1-c1ccc(OC)cc1 | 6.51 µM [falling, single point] | – |
| CCOc1ccc(NC(=O)c2nccnc2CO)cc1 | 8.91 µM [falling, partial curve, poor fit] | – |
| CC1CCc2sc3ncnc(N4CCOCC4)c3c2C1 (stereo not drawn) | 1.3 µM [falling, partial curve, poor fit] | – |
| CCOC(=O)c1c(SCC(=O)Nc2nccs2)nc(C)c(C)c1C | 15.8 µM [falling, single point] | – |
| CCOC(=O)C1=C(C)Nc2ccccc2S1 | 35.5 µM [rising, single point] | – |
| COc1cccc(NS(=O)(=O)c2ccc3c(c2)CC(=O)N3)c1 | 2.06 µM [rising, full curve] | – |
| COc1ccc(Cl)cc1NC(=O)CN(C)CC(=O)Nc1ccccc1-c1ccccc1 | 35.5 µM [falling, single point] | – |
| O=C(N/N=C/c1cccs1)c1cc(-c2ccc3ccccc3c2)n[nH]1 | 10.3 µM [rising, partial curve] | – |

Two of the compounds above, with tabs.
SMILES	AC50 [1]	AC50 (measured here: IkBa-CBG green luminescence)
CS(=O)(=O)c1cccc(C(=O)Nc2cccc(-c3nc4ccccc4[nH]3)c2)c1	20 µM [falling, partial curve, poor fit]	–
O=C(CSCc1ccccc1)N1CCN(c2ccc(F)cc2)CC1	1.58 µM [rising, partial curve, poor fit]	–
